{"source": "patent US20180042923A1", "about": "“COMBINATIONS COMPRISING BREXPIPRAZOLE OR A SALT THEREOF AND A SECOND DRUG FOR USE IN THE TREATMENT OF A CNS DISORDER” (priority 2011, published 2018)", "test_system": "ddY male mice", "assay": "Forced swimming test in mice (antidepressant action)", "format": "in vivo", "conditions": "Compound (I) 0.003 mg/kg i.p. 15 min before test", "protocol": "When an antidepressant is administered in advance, the immobility time is shortened. The shortened immobility time is used as an index of an antidepressant action to be evaluated. This test method is widely used as an experimental animal model reflecting the clinical antidepressant effect.\nIn this test, the action of a combined use of 7-[4-(4-benzo[b]thiophen-4-yl-piperazin-1-yl)butoxy]-1H-quinolin-2-one (Compound (I)) and 9 kinds of antidepressants (serotonin reuptake inhibitors, or serotonin and norepinephrine reuptake inhibitors) on the immobility time was compared.\nAs the animal, ddY male mice (5 to 6-week-old) were used. Various antidepressants and Compound (I) or each vehicle were administered to the mice before the start of the test, the mice were placed in a cylindrical water tank, and immobility time during 2 min to 4 min after the start of swimming was measured by a behavior analysis apparatus with an infrared sensor (SCANET; Melquest Co., Ltd.).\nCompound (I) was dissolved in 1% lactic acid-physiological saline, and various antidepressants were suspended or dissolved in 5% gum arabic-distilled water and used. Various antidepressants (fluoxetine (75 mg/kg), escitalopram (60 mg/kg), paroxetine (10 mg/kg), sertraline (15 mg/kg), venlafaxine (15 mg/kg), milnacipran (30 mg/kg), fluvoxamine (75 mg/kg)) were orally administered 60 min before the start of the test, duloxetine (20 mg/kg) and desvenlafaxine (20 mg/kg) were orally administered 30 min before the start of the test, and Compound (I) (0.001 or 0.003 mg/kg) was intraperitoneally administered 15 min before the start of the test.", "note": "The name of at least one read-out is uncertain."}
{"smiles": "COCCCC/C(=N\\OCCN)c1ccc(C(F)(F)F)cc1", "note": "[fluvoxamine, reference compound]", "values": [{"measurement": "immobility time (3-6 min after start of swimming, unit: sec) (average ± standard error)", "setting": "fluvoxamine 75 mg/kg p.o. 60 min before, n=10", "value": "203.3 ± 6.2", "unit": "s"}]}
{"smiles": "CNCCC(Oc1ccc(C(F)(F)F)cc1)c1ccccc1", "note": "(stereo not shown) [fluoxetine, reference compound]", "values": [{"measurement": "immobility time (3-6 min after start of swimming, unit: sec) (average ± standard error)", "setting": "fluoxetine 75 mg/kg p.o. 60 min before, n=10", "value": "209.3 ± 10.0", "unit": "s"}]}
{"smiles": "CN(C)CCC[C@@]1(c2ccc(F)cc2)OCc2cc(C#N)ccc21", "note": "[escitalopram, reference compound]", "values": [{"measurement": "immobility time (3-6 min after start of swimming, unit: sec) (average ± standard error)", "setting": "escitalopram 60 mg/kg p.o. 60 min before, n=10", "value": "221.5 ± 7.7", "unit": "s"}]}
{"smiles": "CN[C@H]1CC[C@@H](c2ccc(Cl)c(Cl)c2)c2ccccc21", "note": "[sertraline, reference compound]", "values": [{"measurement": "immobility time (3-6 min after start of swimming, unit: sec) (average ± standard error)", "setting": "sertraline 15 mg/kg p.o. 60 min before, n=7", "value": "203.6 ± 6.3", "unit": "s"}]}
